This is one part of the list.

By UniProt entry, the sequences of proteins in these tests, tags left out. Where a name states a change or a piece, a line headed by the entry shows the natural chain unless it says otherwise.
UniProt P38935: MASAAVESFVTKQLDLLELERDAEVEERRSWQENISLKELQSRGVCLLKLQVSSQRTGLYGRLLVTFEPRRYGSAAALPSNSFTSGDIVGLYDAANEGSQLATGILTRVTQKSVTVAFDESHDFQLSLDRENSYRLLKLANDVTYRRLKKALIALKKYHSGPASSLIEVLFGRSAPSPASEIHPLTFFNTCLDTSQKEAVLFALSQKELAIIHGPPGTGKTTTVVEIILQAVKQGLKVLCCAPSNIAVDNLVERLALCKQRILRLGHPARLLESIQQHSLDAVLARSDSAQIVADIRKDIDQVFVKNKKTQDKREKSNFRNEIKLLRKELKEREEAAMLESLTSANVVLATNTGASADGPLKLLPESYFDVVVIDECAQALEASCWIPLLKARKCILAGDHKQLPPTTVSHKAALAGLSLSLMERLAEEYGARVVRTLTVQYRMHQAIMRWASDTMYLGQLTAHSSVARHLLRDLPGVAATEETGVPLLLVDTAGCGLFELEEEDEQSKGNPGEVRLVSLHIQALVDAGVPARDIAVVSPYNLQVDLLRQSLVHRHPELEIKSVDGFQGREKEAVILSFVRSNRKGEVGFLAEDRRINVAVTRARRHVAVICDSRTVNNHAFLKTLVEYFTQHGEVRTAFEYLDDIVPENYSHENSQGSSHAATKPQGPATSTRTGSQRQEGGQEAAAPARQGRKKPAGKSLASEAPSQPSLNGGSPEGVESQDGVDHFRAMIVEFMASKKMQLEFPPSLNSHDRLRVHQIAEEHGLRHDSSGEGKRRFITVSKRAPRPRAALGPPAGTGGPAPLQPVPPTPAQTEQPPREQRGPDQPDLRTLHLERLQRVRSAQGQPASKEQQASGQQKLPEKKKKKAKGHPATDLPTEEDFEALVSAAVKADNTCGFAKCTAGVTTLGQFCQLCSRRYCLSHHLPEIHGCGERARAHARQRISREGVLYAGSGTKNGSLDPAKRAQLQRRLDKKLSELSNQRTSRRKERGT
UniProt Q9UK53: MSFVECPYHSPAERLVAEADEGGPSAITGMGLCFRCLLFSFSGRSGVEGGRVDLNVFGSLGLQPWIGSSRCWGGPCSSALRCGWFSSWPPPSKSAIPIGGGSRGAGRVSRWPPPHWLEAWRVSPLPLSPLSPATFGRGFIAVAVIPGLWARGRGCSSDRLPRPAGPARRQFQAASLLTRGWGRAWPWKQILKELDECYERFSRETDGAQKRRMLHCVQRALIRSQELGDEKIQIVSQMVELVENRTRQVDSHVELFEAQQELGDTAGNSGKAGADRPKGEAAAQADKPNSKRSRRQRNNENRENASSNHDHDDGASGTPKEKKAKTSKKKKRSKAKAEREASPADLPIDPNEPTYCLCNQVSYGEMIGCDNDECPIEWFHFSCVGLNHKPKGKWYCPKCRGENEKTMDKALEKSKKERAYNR
UniProt Q8WYH8, whole entry, looked up: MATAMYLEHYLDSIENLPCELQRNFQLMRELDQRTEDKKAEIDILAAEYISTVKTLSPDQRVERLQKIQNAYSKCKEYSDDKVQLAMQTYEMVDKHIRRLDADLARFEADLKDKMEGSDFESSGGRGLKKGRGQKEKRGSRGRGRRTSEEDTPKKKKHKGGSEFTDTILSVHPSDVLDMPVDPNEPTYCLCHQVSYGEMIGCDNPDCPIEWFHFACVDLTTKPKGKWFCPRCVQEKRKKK
UniProt Q96D96: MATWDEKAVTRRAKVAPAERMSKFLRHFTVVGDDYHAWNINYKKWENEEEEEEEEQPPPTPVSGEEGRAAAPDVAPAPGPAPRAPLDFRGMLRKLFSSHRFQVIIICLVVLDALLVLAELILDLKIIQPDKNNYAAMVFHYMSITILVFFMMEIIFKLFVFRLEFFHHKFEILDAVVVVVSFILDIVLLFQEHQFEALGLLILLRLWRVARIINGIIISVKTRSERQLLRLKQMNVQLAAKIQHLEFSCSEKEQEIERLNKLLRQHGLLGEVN
UniProt P22692: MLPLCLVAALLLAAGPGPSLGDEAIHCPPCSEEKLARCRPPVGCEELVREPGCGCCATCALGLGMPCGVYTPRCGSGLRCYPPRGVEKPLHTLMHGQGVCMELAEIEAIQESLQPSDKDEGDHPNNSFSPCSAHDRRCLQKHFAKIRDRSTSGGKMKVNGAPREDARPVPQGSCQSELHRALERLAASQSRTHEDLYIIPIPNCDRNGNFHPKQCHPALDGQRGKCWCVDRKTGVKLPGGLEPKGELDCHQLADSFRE
UniProt O60725, whole entry, looked up: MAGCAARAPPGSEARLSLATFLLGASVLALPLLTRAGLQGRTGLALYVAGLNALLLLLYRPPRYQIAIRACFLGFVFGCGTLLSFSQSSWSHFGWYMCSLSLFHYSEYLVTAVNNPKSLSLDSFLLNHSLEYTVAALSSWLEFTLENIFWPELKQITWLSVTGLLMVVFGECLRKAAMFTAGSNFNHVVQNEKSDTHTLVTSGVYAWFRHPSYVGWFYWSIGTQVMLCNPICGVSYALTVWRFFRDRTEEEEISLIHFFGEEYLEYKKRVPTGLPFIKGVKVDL
UniProt A2RU49: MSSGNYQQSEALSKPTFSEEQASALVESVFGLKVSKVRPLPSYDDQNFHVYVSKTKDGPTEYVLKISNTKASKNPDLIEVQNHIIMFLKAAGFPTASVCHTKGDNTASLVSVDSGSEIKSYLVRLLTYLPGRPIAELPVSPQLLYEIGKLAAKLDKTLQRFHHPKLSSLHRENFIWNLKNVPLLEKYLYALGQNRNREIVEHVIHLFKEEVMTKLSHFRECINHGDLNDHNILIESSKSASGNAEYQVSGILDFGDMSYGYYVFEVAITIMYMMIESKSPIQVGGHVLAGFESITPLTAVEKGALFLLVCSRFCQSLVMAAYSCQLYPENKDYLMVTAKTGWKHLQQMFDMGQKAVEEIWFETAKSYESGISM
UniProt P22304: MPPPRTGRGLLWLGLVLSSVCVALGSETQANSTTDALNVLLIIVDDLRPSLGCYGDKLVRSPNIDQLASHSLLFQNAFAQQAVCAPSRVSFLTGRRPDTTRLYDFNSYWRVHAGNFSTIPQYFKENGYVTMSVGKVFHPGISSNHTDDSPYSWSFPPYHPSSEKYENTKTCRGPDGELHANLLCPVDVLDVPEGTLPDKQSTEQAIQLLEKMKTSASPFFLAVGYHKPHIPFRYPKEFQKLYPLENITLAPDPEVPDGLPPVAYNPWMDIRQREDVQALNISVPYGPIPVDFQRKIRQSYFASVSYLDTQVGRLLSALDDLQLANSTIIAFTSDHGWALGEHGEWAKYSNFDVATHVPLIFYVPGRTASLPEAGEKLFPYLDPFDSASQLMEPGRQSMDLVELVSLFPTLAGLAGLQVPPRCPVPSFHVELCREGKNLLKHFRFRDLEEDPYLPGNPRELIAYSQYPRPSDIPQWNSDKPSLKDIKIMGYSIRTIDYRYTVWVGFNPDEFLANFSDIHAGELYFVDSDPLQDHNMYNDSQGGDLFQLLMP
UniProt P50213: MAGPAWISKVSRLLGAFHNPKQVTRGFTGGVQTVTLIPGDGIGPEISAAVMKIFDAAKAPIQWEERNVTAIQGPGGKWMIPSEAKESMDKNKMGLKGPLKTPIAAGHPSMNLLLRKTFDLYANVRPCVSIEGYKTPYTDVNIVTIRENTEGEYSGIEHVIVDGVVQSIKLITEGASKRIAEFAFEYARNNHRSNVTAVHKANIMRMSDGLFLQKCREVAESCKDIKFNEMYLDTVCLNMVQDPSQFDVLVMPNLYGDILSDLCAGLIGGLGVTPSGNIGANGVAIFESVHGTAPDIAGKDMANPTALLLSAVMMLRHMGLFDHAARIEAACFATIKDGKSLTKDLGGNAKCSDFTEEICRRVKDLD
UniProt Q96EW2: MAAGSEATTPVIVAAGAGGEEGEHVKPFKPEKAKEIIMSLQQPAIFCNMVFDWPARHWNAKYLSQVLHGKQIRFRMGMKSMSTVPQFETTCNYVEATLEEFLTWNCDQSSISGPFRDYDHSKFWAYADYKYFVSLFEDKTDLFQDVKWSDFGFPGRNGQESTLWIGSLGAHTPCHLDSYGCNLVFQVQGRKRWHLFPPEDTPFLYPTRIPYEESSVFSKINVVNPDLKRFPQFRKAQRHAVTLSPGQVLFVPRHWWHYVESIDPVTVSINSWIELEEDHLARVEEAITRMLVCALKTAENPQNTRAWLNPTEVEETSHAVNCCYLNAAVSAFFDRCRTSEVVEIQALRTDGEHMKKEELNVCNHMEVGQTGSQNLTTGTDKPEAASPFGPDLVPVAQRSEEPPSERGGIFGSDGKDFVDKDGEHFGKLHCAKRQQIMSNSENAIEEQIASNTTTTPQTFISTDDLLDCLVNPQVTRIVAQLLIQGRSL
UniProt Q9H7X7: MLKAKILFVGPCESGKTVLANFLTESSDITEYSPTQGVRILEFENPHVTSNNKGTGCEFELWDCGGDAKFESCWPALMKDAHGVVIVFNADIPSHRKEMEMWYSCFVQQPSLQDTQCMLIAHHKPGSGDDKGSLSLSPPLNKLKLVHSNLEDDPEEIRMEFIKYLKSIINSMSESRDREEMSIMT
UniProt Q8NBZ0, whole entry, looked up: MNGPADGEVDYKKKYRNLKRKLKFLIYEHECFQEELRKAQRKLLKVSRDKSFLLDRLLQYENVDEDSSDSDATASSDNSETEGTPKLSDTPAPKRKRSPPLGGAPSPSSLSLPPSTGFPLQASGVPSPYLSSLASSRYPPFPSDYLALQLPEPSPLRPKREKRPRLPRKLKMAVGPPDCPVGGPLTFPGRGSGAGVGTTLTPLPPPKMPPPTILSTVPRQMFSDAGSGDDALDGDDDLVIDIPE
UniProt Q96LU5: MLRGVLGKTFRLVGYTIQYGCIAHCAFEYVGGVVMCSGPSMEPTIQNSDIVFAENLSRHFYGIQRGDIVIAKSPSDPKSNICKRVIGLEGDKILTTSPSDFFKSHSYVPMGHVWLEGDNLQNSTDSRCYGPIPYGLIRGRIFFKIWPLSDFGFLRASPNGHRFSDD
UniProt Q6UWB1, whole entry, looked up: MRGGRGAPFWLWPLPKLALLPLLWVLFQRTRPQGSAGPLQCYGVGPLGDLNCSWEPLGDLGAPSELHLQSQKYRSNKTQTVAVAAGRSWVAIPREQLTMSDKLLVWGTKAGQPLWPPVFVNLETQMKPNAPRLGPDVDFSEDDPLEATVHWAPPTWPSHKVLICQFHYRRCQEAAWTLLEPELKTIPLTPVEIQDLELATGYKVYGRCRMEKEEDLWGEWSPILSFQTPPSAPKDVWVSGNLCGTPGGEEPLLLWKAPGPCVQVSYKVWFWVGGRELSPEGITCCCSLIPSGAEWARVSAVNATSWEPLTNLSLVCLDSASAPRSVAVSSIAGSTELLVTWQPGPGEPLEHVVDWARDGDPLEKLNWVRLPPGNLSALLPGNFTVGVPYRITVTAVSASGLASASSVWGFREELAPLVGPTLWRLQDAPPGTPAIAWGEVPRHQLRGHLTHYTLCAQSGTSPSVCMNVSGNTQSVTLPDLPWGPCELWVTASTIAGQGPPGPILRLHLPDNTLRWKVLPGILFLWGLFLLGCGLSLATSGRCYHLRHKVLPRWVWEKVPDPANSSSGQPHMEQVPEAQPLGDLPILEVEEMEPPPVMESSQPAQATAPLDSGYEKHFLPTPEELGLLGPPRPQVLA
UniProt Q9NWB7: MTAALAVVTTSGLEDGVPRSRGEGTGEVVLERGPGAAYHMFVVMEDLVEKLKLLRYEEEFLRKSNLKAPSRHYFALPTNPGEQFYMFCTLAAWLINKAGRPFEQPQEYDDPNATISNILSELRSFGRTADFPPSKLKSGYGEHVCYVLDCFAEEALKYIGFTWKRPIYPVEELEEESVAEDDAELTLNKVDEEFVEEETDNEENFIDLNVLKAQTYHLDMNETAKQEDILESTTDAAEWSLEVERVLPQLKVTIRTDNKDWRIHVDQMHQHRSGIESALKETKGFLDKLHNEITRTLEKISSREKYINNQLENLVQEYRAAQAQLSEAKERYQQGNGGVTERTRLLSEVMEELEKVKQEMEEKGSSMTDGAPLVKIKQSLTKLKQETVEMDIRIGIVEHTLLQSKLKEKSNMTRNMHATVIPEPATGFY
UniProt O14879: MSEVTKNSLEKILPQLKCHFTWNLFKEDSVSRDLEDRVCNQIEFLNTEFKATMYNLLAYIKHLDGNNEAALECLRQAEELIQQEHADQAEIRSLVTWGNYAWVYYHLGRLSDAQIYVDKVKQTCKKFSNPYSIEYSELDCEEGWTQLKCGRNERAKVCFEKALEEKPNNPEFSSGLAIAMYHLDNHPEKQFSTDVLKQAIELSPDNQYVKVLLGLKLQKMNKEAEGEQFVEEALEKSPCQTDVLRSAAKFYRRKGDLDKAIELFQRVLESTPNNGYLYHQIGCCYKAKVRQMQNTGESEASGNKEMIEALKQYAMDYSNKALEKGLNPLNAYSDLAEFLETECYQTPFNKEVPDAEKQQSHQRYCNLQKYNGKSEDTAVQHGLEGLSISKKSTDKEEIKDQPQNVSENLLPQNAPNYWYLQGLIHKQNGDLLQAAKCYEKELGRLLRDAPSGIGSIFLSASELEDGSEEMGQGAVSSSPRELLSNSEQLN
IGKV3D-7, A0A0C4DH55, UniProt A0A0C4DH55, whole entry, looked up: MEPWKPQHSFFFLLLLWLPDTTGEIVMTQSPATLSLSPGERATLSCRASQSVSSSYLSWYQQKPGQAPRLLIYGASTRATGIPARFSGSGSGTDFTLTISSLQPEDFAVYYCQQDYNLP

Compound in one assay: C=CC(=O)N1CCC[C@@H](n2nc(-c3ccc(Oc4ccccc4)cc3)c3c(N)ncnc32)C1 [ibrutinib]
As to the kind of experiment: log2 fold change, soluble protein after heating vs DMSO (PISA); higher = thermal stabilisation; K562 lysate, 10 uM; active = over 0.2 and 3.5 SD of the protein, either way, in both replicates (recomputed). The procedure, abridged:
(§1)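 Quantification was by TMTpro 16plex LC-MS/MS with equalised channel sums, applied to the supernatant after 21,000xg for 90 min. Samples were crude K562 extract at 1 mg/mL protein in PBS pH 7.4 with 1 mM MgCl2, treated with 10 μM compound for 30 min, heated for 3 min across 48°C-58°C, pooled and brought to 0.5% NP-40 at 4°C. Values are log-two fold changes in thermal stability relative to solvent controls, from duplicates.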
With IGHMBP2 (UniProt P38935), the log2 fold change is inactive: -0.087.
Regarding ING1 (UniProt Q9UK53), the log2 fold change was inactive: 0.019.
Still for that read-out and setting: for IGLC3 (UniProt P0DOY3) the value was inactive: -0.48.
Consider ING5 (UniProt Q8WYH8), for which the log2 fold change is inactive: 0.006.
The same measure, in the same setting: for HSPA8 (UniProt E9PN89) the value was inactive: 0.081.
Still for that read-out and setting: for HVCN1 (UniProt Q96D96) the value was inactive: -0.057; for IGFBP4 (UniProt P22692), inactive: 0.035; for IMPDH2 (UniProt H0Y4R1), inactive: -0.025.
Still for that read-out and setting: then ICMT (UniProt O60725), with inactive: 0.119; and HYKK (UniProt A2RU49), with inactive: 0.052.
Turning to HYOU1, A0A494C039, the log2 fold change was inactive: -0.125.
Still for that read-out and setting: for IDS (UniProt P22304) the value was inactive: -0.068.
Same read-out and setting: for HTR1F (UniProt P30939) the value was inactive: 0.046; for IDH3A isoform 2 (UniProt P50213), inactive: 0.032; for HSPBAP1 (UniProt Q96EW2), inactive: -0.008.
Same read-out and setting: then IGKC (UniProt P01834), with inactive: -0.32.
For IFT22 (UniProt Q9H7X7), the log2 fold change was inactive: -0.163.
Same read-out and setting: then INO80E (UniProt Q8NBZ0), with inactive: -0.053.
IMMP1L (UniProt Q96LU5): the log2 fold change is inactive: 0.04.
The same measure, in the same setting: for HTD2 (UniProt P86397) the value was inactive: 0.009; for IL27RA (UniProt Q6UWB1), inactive: -0.031.

Compound in another assay: CC(=O)c1cnc2ccc(-c3cc(Cl)c(O)c(Cl)c3)nc2c1N[C@H]1CC[C@H](CN(C)C)CC1
The assay is described as above. An outline of the steps: as §1
Consider IGHMBP2 (UniProt P38935), for which the log2 fold change was inactive: -0.142.
Same read-out and setting: then HYDIN (UniProt Q4G0P3), with inactive: -0.076.
Still for that read-out and setting: then ING5 (UniProt Q8WYH8), with inactive: -0.014; and HSPA8 (UniProt E9PN89), with inactive: -0.051.
The same measure, in the same setting: for HVCN1 (UniProt Q96D96) the value was inactive: 0.121.
IGFBP4 (UniProt P22692): the log2 fold change is inactive: 0.169.
IMPDH2 (UniProt H0Y4R1): the log2 fold change is inactive: -0.047.
Still for that read-out and setting: then IFT57 (UniProt Q9NWB7), with inactive: -0.208.
Same read-out and setting: for HYKK (UniProt A2RU49) the value was inactive: 0.209; for HYOU1, A0A494C039, inactive: 0.045.
For IDS (UniProt P22304), the log2 fold change is inactive: -0.005.
As to IDH3A isoform 2 (UniProt P50213), the log2 fold change was inactive: -0.035.
For HSPBAP1 (UniProt Q96EW2), the log2 fold change is inactive: 0.039.
Same read-out and setting: then IGKC (UniProt P01834), with inactive: 0.202; and INO80E (UniProt Q8NBZ0), with inactive: -0.056; and IMMP1L (UniProt Q96LU5), with inactive: 0.043.
Turning to HTD2 (UniProt P86397), the log2 fold change was inactive: -0.017.
IL27RA (UniProt Q6UWB1): the log2 fold change is inactive: -0.051.

Compound in a further assay: CC(C)(C)Cn1c(N)nc2ccc(-c3[nH]c(C(C)(C)C)nc3-c3ccc(F)cc3)nc21 [ralimetinib]
The assay is described as above. An outline of the steps: as §1
Regarding ING1 (UniProt Q9UK53), the log2 fold change was inactive: 0.118.
On the same count and under the same terms, for HYDIN (UniProt Q4G0P3) the value was inactive: 0.148; for ING5 (UniProt Q8WYH8), inactive: -0.13.
Still for that read-out and setting: then HSPA8 (UniProt E9PN89), with inactive: 0.034; and IGFBP4 (UniProt P22692), with inactive: 0.012; and IGHV3-72, A0A4W8ZXM2, with inactive: -0.003.
In the case of IFIT3 (UniProt O14879), the log2 fold change is inactive: 0.124.
For the target IMPDH2 (UniProt H0Y4R1), the log2 fold change is inactive: -0.069.
Same read-out and setting: then IFT57 (UniProt Q9NWB7), with inactive: 0.125; and ICMT (UniProt O60725), with inactive: -0.02.
Still for that read-out and setting: then HYKK (UniProt A2RU49), with inactive: -0.182.
For IGKV3D-7, A0A0C4DH55, the log2 fold change is inactive: -0.223.
Consider HSPBAP1 (UniProt Q96EW2), for which the log2 fold change was inactive: -0.056.
Same read-out and setting: for IGKC (UniProt P01834) the value was inactive: -0.028; for IFT22 (UniProt Q9H7X7), inactive: 0.112; for INO80E (UniProt Q8NBZ0), inactive: 0.167.
On the same count and under the same terms, for IMMP1L (UniProt Q96LU5) the value was inactive: 0.04; for IFT122 isoform 5 (UniProt Q9HBG6), inactive: 0.101.
Consider HTD2 (UniProt P86397), for which the log2 fold change was inactive: 0.013.
The same measure, in the same setting: then IL27RA (UniProt Q6UWB1), with inactive: -0.002.

Compound in the next assay: CC(C)(O)CC(=O)NCCn1ccc2ncnc(Nc3ccc(Oc4cccc(C(F)(F)F)c4)c(Cl)c3)c21
The assay is described as above. The procedure, abridged:
as §1
On to ING1 (UniProt Q9UK53), for which the log2 fold change is inactive: 0.04.
Same read-out and setting: then HYDIN (UniProt Q4G0P3), with inactive: -0.071; and ING5 (UniProt Q8WYH8), with inactive: -0.177; and HSPA8 (UniProt E9PN89), with inactive: -0.215.
On to IGFBP4 (UniProt P22692), for which the log2 fold change was inactive: -0.087.
Consider IGHV3-72, A0A4W8ZXM2, for which the log2 fold change is inactive: -0.236.
On the same count and under the same terms, then IFIT3 (UniProt O14879), with inactive: -0.123; and IMPDH2 (UniProt H0Y4R1), with inactive: -0.112.
The same measure, in the same setting: then IFT57 (UniProt Q9NWB7), with inactive: -0.243; and ICMT (UniProt O60725), with inactive: -0.066; and HYKK (UniProt A2RU49), with inactive: -0.115.
For IGKV3D-7, A0A0C4DH55, the log2 fold change was inactive: 0.151.
Still for that read-out and setting: then HSPBAP1 (UniProt Q96EW2), with inactive: -0.095; and IGKC (UniProt P01834), with inactive: 0.369; and IFT22 (UniProt Q9H7X7), with inactive: -0.191.
Same read-out and setting: for INO80E (UniProt Q8NBZ0) the value was inactive: -0.126; for IMMP1L (UniProt Q96LU5), inactive: -0.021; for IFT122 isoform 5 (UniProt Q9HBG6), inactive: 0.033.
On the same count and under the same terms, for HTD2 (UniProt P86397) the value was inactive: 0.027; for IL27RA (UniProt Q6UWB1), inactive: -0.184.

These data come from the supplement of paper PMC10849652.
